In patent publication US5635477A (The DuPont Merck Pharmaceutical Company, priority 1995, dated 1997):
For some assays here: Strings that start with PEPTIDE1 are HELM notation: dots part the residues, brackets hold end groups and non-standard residues.

Key:
peptide synthesis = conditions: coupling step, TFA salt
[1] = general procedure: Boc solid-phase peptide synthesis; oxime resin; HBTU or TBTU with N-methylmorpholine; conditions: whole synthesis, TFA salt
[2] = general procedure: Boc solid-phase peptide synthesis; oxime resin (substitution level=0.96 mmol/g); HBTU or TBTU with N-methylmorpholine; conditions: for isolated yield / crude yield / crude mass: whole synthesis; for isolated yield: overall
[3] = late stage modification step, acetate salt
[4] = purification step, TFA salt, run 1
[5] = late stage modification step, TFA salt
[6] = protected cyclic peptide, TFA salt
[7] = protected cyclic peptide, scale 0.596 mmol, TFA salt

In the case of “Boc-D-Val-NMeArg(Tos)-Gly-Asp(OcHex)-MAMB-Ox”, the step yield (peptide synthesis) is reported as 86%.
“PEPTIDE1{G.[NMeArg].G.D.[Mamb]}$PEPTIDE1,PEPTIDE1,1:R1-5:R2$$$V2.0” showed a crude mass ([1]; scale 0.336 mmol) of 218 mg, a step yield ([2]; purification step, TFA salt) of 21% recovery and an isolated yield ([2]; TFA salt) of 16.3%. For the same substance, the crude yield ([2]; scale 0.336 mmol, TFA salt) was 84%.
“PEPTIDE1{[dV].[NMeArg].G.D.[Mamb]}$PEPTIDE1,PEPTIDE1,1:R1-5:R2$$$V2.0” showed a crude mass ([1]; scale 0.101 mmol) of 49 mg, a step yield [2, 3] of 82% and a step yield ([2]; late stage modification step, on protected cyclic peptide, TFA salt) of 70%. The step yield [2, 4] was 24% recovery, the step yield ([2]; purification step, TFA salt, run 2) was “approximately 40%” and the isolated yield ([2]; TFA salt) was 9.4%. For the same substance, the crude yield ([2]; scale 0.101 mmol, TFA salt) was 60%.
With cyclo-(D-Abu-D-NMeArg-Gly-Asp-Mamb) the step yield [2, 5] was 98.3%, the step yield ([2]; purification step, TFA salt) was 2.3% recovery and the isolated yield ([2]; TFA salt) was “overall yield 0.99%”. For the same substance, the crude yield [2, 6] was 50.8% and the crude mass [2, 7] was 241 mg.
For cyclo-(D-Abu-NMeArg-Gly-D-Asp-Mamb), the step yield ([2]; purification step, TFA salt) was 40.4% recovery, the isolated yield ([2]; TFA salt) was “overall yield 21.9%” and the crude yield [2, 6] was 57.6%. It also gave a crude mass [2, 7] of 273 mg.
In the case of cyclo-(D-Abu-di-NMeOrn-Gly-Asp-Mamb), the step yield [2, 5] is reported as 86%, the step yield ([2]; purification step, TFA salt) is reported as 49.3% recovery and the isolated yield ([2]; TFA salt) is reported as “overall yield 14.2%”. It also gave a crude yield [2, 6] of 39.3% and a crude mass ([2]; protected cyclic peptide, scale 0.498 mmol, TFA salt) of 150 mg.
cyclo-(D-Met-NMeArg-Gly-Asp-Mamb) showed a step yield ([2]; late stage modification step, fluoride salt) of 92.3%, a step yield ([2]; purification step, TFA salt) of 13.2% and an isolated yield ([2]; TFA salt) of 7.4%. The crude mass ([2]; scale 0.179 mmol, TFA salt) was 105 mg and the crude yield ([2]; scale 0.179 mmol, TFA salt) was 69.7%.
With cyclo-(D-Val-D-NMeArg-Gly-Asp-Mamb) the crude mass ([1]; scale 0.596 mmol) was 186 mg, the step yield ([2]; purification step, TFA salt) was 14.8% and the isolated yield ([2]; TFA salt) was 5.3%. It also gave a crude yield ([2]; scale 0.596 mmol, TFA salt) of 38.6%.
In the case of “cyclo-(D-Val-NMeArg-Gly-Asp-4-aminomethylbenzoic acid) [87]”, the step yield [2, 4] is reported as 17.1% recovery and the isolated yield ([2]; TFA salt, run 1) is reported as “overall yield 9.3%”.
For “cyclo-(D-Val-NMeArg-Gly-Asp-4-aminomethylbenzoic acid) [88]”, the step yield [2, 4] was 13.4% recovery and the isolated yield ([2]; TFA salt, run 1) was “overall yield 7.3%”.
cyclo-(D-Val-NMeArg-Gly-Asp-NMeMamb) showed a crude mass ([1]; protected cyclic peptide, scale 0.456 mmol) of 406 mg, a step yield [2, 5] of 93.5% and a step yield ([2]; purification step, TFA salt) of 34.2% recovery. The isolated yield ([2]; TFA salt) was “overall yield 29.9%”.
In the case of “cyclo-(D-Val-NMeArg-Gly-Asp-aminomethylnaphthoic acid)”, the step yield ([2]; purification step, TFA salt) is reported as 12.1% recovery, the isolated yield ([2]; TFA salt) is reported as “overall yield 7.8%” and the crude yield [2, 6] is reported as 73.1%. For the same substance, the crude mass ([2]; protected cyclic peptide, scale 0.737 mmol, TFA salt) was 463 mg.
Work on “cyclo-(D-Val-NMeArg-Gly-B-MeAsp-Mamb) [Example 64/64a isomer #1]” yielded a step yield [2, 4] of 12.7% and an isolated yield ([2]; TFA salt, run 1) of 4.8%.
“cyclo-(D-Val-NMeArg-Gly-B-MeAsp-Mamb) [Example 64/64a isomer #2]” showed a step yield [2, 4] of 13.9% and an isolated yield ([2]; TFA salt, run 1) of 5.3%.
Work on cyclo-(Pro-NMeArg-Gly-Asp-Mamb) yielded a step yield [2, 3] of 79%, a step yield ([2]; purification step, TFA salt) of 5.8% and an isolated yield ([2]; TFA salt) of 2.1%. For the same substance, the crude mass ([2]; scale 0.43 mmol, TFA salt) was 170 mg and the crude yield ([2]; scale 0.43 mmol, TFA salt) was 48.8%.
